{"source": "ChEMBL document CHEMBL4145659", "about": "“Discovery of a Series of Indole-2 Carboxamides as Selective Secreted Phospholipase A2 Type X (sPLA2-X) Inhibitors” (ACS Med Chem Lett, 2018)", "assay": "physchem", "data": [{"molecule": "NC(=O)c1cc2ccc(OC(F)(F)F)cc2n1-c1cccc(CCC(=O)O)c1", "values": [{"measurement": "solubility at 24 h", "value": 98, "unit": "µM"}]}]}
